Results: doi:10.1101/2022.06.27.497790
No constants are given. Whether binding was seen depends on the method and setting. Binding seen in cells or lysates may run through a third protein. A yes stands for co-enrichment or nearness to the bait. Other partners may have been found. Where a sequence is shown, tags or fusion partners need not be part of it.

Chains of the proteins cited; added tags and fusions are not shown. Residues count along the entry.
UniProt P23284, residues 34-216: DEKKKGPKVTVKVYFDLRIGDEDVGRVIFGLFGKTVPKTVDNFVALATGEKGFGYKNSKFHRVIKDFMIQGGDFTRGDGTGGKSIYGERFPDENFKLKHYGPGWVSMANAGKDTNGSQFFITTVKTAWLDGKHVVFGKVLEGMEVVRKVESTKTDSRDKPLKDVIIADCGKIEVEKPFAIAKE
UniProt P27824, residues 21-592: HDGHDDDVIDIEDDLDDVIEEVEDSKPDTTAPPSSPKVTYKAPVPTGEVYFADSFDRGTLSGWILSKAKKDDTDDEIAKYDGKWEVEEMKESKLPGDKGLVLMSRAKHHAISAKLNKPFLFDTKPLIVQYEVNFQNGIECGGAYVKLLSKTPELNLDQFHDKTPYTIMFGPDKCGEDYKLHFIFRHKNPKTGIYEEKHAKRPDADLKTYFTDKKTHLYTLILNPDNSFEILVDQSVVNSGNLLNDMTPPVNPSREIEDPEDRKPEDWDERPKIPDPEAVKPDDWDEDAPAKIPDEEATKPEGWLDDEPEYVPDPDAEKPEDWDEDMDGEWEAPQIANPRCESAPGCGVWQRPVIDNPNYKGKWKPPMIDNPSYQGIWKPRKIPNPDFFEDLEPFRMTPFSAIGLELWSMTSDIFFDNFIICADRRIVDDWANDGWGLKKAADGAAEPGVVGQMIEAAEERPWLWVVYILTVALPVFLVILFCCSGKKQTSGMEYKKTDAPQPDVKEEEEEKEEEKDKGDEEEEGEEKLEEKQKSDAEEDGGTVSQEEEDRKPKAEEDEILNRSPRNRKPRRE
UniProt Q9UGP8: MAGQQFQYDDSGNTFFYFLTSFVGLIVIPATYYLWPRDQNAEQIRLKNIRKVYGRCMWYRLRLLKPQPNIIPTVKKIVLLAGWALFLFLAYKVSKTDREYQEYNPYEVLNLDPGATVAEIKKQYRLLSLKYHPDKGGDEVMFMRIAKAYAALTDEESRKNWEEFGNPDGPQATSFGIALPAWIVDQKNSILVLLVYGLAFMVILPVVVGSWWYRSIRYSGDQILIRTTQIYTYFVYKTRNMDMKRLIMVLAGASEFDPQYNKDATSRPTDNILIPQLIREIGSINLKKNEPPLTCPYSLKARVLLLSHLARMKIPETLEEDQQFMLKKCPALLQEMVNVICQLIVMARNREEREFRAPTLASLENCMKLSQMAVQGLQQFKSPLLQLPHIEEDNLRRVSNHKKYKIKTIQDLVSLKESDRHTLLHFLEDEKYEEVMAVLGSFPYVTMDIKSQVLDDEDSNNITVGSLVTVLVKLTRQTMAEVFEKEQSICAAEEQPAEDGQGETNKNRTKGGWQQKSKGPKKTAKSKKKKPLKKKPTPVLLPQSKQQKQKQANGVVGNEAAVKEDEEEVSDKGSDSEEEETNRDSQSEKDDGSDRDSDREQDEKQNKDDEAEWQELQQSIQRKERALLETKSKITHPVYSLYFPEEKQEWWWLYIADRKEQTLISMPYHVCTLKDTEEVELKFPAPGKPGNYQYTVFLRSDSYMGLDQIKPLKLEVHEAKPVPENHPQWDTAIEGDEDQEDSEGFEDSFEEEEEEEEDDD
UniProt Q9UBS4, residues 23-358: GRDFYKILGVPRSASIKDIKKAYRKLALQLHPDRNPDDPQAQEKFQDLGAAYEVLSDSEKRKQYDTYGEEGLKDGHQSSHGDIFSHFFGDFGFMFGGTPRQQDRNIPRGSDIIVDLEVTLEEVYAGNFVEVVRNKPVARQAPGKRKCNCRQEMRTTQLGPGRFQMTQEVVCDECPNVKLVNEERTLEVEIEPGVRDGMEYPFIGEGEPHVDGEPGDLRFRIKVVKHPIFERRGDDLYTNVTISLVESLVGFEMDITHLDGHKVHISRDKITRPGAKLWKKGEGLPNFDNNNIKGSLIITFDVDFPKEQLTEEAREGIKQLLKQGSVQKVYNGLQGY
UniProt P11021, residues 19-654: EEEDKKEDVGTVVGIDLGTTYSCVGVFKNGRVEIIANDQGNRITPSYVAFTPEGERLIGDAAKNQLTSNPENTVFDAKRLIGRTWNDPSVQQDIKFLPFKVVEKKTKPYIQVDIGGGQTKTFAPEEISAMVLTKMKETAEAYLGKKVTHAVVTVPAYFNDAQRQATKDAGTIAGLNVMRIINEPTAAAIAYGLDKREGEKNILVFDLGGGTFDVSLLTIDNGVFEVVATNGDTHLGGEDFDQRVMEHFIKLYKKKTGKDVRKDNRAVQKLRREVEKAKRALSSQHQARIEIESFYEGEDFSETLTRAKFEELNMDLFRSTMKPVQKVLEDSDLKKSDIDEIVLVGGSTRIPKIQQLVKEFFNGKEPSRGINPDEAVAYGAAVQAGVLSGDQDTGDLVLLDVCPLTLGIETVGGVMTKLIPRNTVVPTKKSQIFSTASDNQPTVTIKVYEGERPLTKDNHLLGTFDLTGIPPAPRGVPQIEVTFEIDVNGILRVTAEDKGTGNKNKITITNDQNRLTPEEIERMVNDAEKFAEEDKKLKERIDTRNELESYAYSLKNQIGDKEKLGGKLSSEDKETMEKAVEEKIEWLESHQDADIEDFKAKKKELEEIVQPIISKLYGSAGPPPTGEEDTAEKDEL
UniProt Q15005: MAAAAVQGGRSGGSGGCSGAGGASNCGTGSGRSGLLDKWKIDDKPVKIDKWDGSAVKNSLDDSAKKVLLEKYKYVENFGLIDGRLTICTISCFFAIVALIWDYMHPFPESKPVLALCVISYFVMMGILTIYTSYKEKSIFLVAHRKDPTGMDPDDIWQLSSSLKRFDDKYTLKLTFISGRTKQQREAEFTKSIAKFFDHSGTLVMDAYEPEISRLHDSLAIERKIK
UniProt Q969V3, residues 43-563: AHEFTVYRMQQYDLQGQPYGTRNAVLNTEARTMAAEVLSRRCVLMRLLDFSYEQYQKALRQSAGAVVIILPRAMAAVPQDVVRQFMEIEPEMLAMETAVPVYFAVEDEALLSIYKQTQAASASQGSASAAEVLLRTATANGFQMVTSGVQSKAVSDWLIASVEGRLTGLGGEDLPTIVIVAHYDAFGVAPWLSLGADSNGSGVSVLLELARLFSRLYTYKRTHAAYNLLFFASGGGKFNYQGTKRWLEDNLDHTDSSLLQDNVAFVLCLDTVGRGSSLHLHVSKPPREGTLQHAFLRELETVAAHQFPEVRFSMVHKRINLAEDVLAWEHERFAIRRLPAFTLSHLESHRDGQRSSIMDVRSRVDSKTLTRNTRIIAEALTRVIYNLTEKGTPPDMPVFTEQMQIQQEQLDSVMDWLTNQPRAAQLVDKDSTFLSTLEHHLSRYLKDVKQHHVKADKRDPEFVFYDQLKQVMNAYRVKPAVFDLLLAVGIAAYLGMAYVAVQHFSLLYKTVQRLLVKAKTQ
UniProt P14625, residues 22-803: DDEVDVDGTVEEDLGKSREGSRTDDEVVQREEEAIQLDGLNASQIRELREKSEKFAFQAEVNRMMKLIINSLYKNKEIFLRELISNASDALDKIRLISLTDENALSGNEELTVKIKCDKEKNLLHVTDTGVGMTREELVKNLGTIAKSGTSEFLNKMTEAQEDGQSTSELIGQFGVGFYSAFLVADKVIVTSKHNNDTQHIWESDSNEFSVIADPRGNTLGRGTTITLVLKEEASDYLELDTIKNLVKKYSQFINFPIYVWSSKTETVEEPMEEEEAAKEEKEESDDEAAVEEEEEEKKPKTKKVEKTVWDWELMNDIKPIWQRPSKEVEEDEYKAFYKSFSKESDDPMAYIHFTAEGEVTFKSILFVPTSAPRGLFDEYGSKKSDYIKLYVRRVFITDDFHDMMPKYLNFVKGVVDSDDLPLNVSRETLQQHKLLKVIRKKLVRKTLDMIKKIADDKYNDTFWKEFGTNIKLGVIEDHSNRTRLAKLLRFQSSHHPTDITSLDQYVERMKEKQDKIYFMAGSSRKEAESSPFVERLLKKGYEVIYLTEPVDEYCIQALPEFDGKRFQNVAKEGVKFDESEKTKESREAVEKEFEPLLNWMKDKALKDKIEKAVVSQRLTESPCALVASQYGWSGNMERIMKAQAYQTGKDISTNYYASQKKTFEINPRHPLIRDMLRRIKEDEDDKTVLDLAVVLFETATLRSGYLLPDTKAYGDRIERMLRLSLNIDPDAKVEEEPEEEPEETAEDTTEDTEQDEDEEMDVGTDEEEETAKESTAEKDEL

T1: Hspa13^Flag (human (cDNA from HEK293T)) (UniProt P48723)
T1 sequence: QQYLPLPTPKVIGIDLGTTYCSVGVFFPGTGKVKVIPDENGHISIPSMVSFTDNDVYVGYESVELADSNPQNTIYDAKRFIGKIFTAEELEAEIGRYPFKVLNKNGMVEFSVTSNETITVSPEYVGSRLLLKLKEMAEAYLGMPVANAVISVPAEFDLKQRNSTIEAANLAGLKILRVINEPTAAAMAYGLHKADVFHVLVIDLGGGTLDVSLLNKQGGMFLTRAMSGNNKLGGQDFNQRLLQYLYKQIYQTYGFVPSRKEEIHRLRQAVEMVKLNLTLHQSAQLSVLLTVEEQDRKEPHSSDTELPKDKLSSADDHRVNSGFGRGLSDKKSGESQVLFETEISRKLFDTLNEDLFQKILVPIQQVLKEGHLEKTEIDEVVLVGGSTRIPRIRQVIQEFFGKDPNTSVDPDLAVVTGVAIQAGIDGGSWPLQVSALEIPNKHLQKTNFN


Biological target: T1, Hspa13^Flag (human (cDNA from HEK293T))
Experiment: affinity purification with mass spectrometry

| Molecule | binding |
| --- | --- |
| PPIB (from UniProt P23284 34-216) | binds |
| calnexin (from UniProt P27824 21-592) | binds |
| Sec63 (from UniProt Q9UGP8 1-760) | binds |
| ERdj3/DNAJB11 (from UniProt Q9UBS4 23-358) | binds |
| BiP (from UniProt P11021 19-654) | binds |
| SPCS2 (from UniProt Q15005 1-226) | binds |
| NCLN (from UniProt Q969V3 43-563) | binds |
| Grp94/HSPB90B1 (from UniProt P14625 22-803) | binds |
| Erp29 (from UniProt P30040 33-261) | binds |
| SPCS3 (protein, UniProt P61009 1-180) MNTVLSRANSLFAFSLSVMAALTFGCFITTAFKDRSVPVRLHVSRIMLKNVEDFTGPRERSDLGFITFDITADLENIFDWNVKQLFLYLSAEYSTKNNALNQVVLWDKIVLRGDNPKLLLKDMKTKYFFFDDGNGLKGNRNVTLTLSWNVVPNAGILPLVTGSGHVSVPFPDTYEITKSY | binds |
| RPN1 (protein, UniProt P04843 24-607) ASSEAPPLINEDVKRTVDLSSHLAKVTAEVVLAHLGGGSTSRATSFLLALEPELEARLAHLGVQVKGEDEEENNLEVRETKIKGKSGRFFTVKLPVALDPGAKISVIVETVYTHVLHPYPTQITQSEKQFVVFEGNHYFYSPYPTKTQTMRVKLASRNVESYTKLGNPTRSEDLLDYGPFRDVPAYSQDTFKVHYENNSPFLTITSMTRVIEVSHWGNIAVEENVDLKHTGAVLKGPFSRYDYQRQPDSGISSIRSFKTILPAAAQDVYYRDEIGNVSTSHLLILDDSVEMEIRPRFPLFGGWKTHYIVGYNLPSYEYLYNLGDQYALKMRFVDHVFDEQVIDSLTVKIILPEGAKNIEIDSPYEISRAPDELHYTYLDTFGRPVIVAYKKNLVEQHIQDIVVHYTFNKVLMLQEPLLVVAAFYILFFTVIIYVRLDFSITKDPAAEARMKVACITEQVLTLVNKRIGLYRHFDETVNRYKQSRDISTLNSGKKSLETEHKALTSEIALLQSRLKTEGSDLCDRVSEMQKLDAQVKELVLKSAVEAERLVAGKLKKDTYIENEKLISGKRQELVTKIDHILDAL | binds |
| DDOST (protein, UniProt P39656 43-456) SGPRTLVLLDNLNVRETHSLFFRSLKDRGFELTFKTADDPSLSLIKYGEFLYDNLIIFSPSVEDFGGNINVETISAFIDGGGSVLVAASSDIGDPLRELGSECGIEFDEEKTAVIDHHNYDISDLGQHTLIVADTENLLKAPTIVGKSSLNPILFRGVGMVADPDNPLVLDILTGSSTSYSFFPDKPITQYPHAVGKNTLLIAGLQARNNARVIFSGSLDFFSDSFFNSAVQKAAPGSQRYSQTGNYELAVALSRWVFKEEGVLRVGPVSHHRVGETAPPNAYTVTDLVEYSIVIQQLSNGKWVPFDGDDIQLEFVRIDPFVRTFLKKKGGKYSVQFKLPDVYGVFQFKVDYNRLGYTHLYSSTQVSVRPLQHTQYERFIPSAYPYYASAFSMMLGLFIFSIVFLHMKEKEKSD | binds |
| MAGT1 (protein, UniProt Q9H0U3 30-335) QRKKEMVLSEKVSQLMEWTNKRPVIRMNGDKFRRLVKAPPRNYSVIVMFTALQLHRQCVVCKQADEEFQILANSWRYSSAFTNRIFFAMVDFDEGSDVFQMLNMNSAPTFINFPAKGKPKRGDTYELQVRGFSAEQIARWIADRTDVNIRVIRPPNYAGPLMLGLLLAVIGGLVYLRRSNMEFLFNKTGWAFAALCFVLAMTSGQMWNHIRGPPYAHKNPHTGHVNYIHGSSQAQFVAETHIVLLFNGGVTLGMVLLCEAATSDMDIGKRKIMCVAGIGLVVLFFSWMLSIFRSKYHGYPYSFLMS | binds |
| STT3A (protein, UniProt P46977 1-705) MTKFGFLRLSYEKQDTLLKLLILSMAAVLSFSTRLFAVLRFESVIHEFDPYFNYRTTRFLAEEGFYKFHNWFDDRAWYPLGRIIGGTIYPGLMITSAAIYHVLHFFHITIDIRNVCVFLAPLFSSFTTIVTYHLTKELKDAGAGLLAAAMIAVVPGYISRSVAGSYDNEGIAIFCMLLTYYMWIKAVKTGSICWAAKCALAYFYMVSSWGGYVFLINLIPLHVLVLMLTGRFSHRIYVAYCTVYCLGTILSMQISFVGFQPVLSSEHMAAFGVFGLCQIHAFVDYLRSKLNPQQFEVLFRSVISLVGFVLLTVGALLMLTGKISPWTGRFYSLLDPSYAKNNIPIIASVSEHQPTTWSSYYFDLQLLVFMFPVGLYYCFSNLSDARIFIIMYGVTSMYFSAVMVRLMLVLAPVMCILSGIGVSQVLSTYMKNLDISRPDKKSKKQQDSTYPIKNEVASGMILVMAFFLITYTFHSTWVTSEAYSSPSIVLSARGGDGSRIIFDDFREAYYWLRHNTPEDAKVMSWWDYGYQITAMANRTILVDNNTWNNTHISRVGQAMASTEEKAYEIMRELDVSYVLVIFGGLTGYSSDDINKFLWMVRIGGSTDTGKHIKENDYYTPTGEFRVDREGSPVLLNCLMYKMCYYRFGQVYTEAKRPPGFDRVRNAEIGNKDFELDVLEEAYTTEHWLVRIYKVKDLDNRGLSRT | binds |
| STT3B (protein, UniProt Q8TCJ2 1-826) MAEPSAPESKHKSSLNSSPWSGLMALGNSRHGHHGPGAQCAHKAAGGAAPPKPAPAGLSGGLSQPAGWQSLLSFTILFLAWLAGFSSRLFAVIRFESIIHEFDPWFNYRSTHHLASHGFYEFLNWFDERAWYPLGRIVGGTVYPGLMITAGLIHWILNTLNITVHIRDVCVFLAPTFSGLTSISTFLLTRELWNQGAGLLAACFIAIVPGYISRSVAGSFDNEGIAIFALQFTYYLWVKSVKTGSVFWTMCCCLSYFYMVSAWGGYVFIINLIPLHVFVLLLMQRYSKRVYIAYSTFYIVGLILSMQIPFVGFQPIRTSEHMAAAGVFALLQAYAFLQYLRDRLTKQEFQTLFFLGVSLAAGAVFLSVIYLTYTGYIAPWSGRFYSLWDTGYAKIHIPIIASVSEHQPTTWVSFFFDLHILVCTFPAGLWFCIKNINDERVFVALYAISAVYFAGVMVRLMLTLTPVVCMLSAIAFSNVFEHYLGDDMKRENPPVEDSSDEDDKRNQGNLYDKAGKVRKHATEQEKTEEGLGPNIKSIVTMLMLMLLMMFAVHCTWVTSNAYSSPSVVLASYNHDGTRNILDDFREAYFWLRQNTDEHARVMSWWDYGYQIAGMANRTTLVDNNTWNNSHIALVGKAMSSNETAAYKIMRTLDVDYVLVIFGGVIGYSGDDINKFLWMVRIAEGEHPKDIRESDYFTPQGEFRVDKAGSPTLLNCLMYKMSYYRFGEMQLDFRTPPGFDRTRNAEIGNKDIKFKHLEEAFTSEHWLVRIYKVKAPDNRETLDHKPRVTNIFPKQKYLSKKTTKRKRGYIKNKLVFKKGKKISKKTV | binds |
| Hsp47 (protein, UniProt P50454 19-418) AEVKKPAAAAAPGTAEKLSPKAATLAERSAGLAFSLYQAMAKDQAVENILVSPVVVASSLGLVSLGGKATTASQAKAVLSAEQLRDEEVHAGLGELLRSLSNSTARNVTWKLGSRLYGPSSVSFADDFVRSSKQHYNCEHSKINFRDKRSALQSINEWAAQTTDGKLPEVTKDVERTDGALLVNAMFFKPHWDEKFHHKMVDNRGFMVTRSYTVGVMMMHRTGLYNYYDDEKEKLQIVEMPLAHKLSSLIILMPHHVEPLERLEKLLTKEQLKIWMGKMQKKAVAISLPKGVVEVTHDLQKHLAGLGLTEAIDKNKADLSRMSGKKDLYLASVFHATAFELDTDGNPFDQDIYGREELRSPKLFYADHPFIFLVRDTQSGSLLFIGRLVRPKGDKMRDEL | binds |
